Measured values reported in paper PMC4911932.
Results are given in words; binding and its absence hold for the method and conditions named. In cells and extracts the contact can be indirect. A result given as binding can be weak or reduced; the word gives no strength. For some of these results: Where a sequence is shown, tags or fusion partners need not be part of it.

Protein sequences, listed by entry. Tags and fused reporters are not part of them. Lines headed by an entry give the natural chain unless they say otherwise; changes in a name come on top.
UniProt P35187: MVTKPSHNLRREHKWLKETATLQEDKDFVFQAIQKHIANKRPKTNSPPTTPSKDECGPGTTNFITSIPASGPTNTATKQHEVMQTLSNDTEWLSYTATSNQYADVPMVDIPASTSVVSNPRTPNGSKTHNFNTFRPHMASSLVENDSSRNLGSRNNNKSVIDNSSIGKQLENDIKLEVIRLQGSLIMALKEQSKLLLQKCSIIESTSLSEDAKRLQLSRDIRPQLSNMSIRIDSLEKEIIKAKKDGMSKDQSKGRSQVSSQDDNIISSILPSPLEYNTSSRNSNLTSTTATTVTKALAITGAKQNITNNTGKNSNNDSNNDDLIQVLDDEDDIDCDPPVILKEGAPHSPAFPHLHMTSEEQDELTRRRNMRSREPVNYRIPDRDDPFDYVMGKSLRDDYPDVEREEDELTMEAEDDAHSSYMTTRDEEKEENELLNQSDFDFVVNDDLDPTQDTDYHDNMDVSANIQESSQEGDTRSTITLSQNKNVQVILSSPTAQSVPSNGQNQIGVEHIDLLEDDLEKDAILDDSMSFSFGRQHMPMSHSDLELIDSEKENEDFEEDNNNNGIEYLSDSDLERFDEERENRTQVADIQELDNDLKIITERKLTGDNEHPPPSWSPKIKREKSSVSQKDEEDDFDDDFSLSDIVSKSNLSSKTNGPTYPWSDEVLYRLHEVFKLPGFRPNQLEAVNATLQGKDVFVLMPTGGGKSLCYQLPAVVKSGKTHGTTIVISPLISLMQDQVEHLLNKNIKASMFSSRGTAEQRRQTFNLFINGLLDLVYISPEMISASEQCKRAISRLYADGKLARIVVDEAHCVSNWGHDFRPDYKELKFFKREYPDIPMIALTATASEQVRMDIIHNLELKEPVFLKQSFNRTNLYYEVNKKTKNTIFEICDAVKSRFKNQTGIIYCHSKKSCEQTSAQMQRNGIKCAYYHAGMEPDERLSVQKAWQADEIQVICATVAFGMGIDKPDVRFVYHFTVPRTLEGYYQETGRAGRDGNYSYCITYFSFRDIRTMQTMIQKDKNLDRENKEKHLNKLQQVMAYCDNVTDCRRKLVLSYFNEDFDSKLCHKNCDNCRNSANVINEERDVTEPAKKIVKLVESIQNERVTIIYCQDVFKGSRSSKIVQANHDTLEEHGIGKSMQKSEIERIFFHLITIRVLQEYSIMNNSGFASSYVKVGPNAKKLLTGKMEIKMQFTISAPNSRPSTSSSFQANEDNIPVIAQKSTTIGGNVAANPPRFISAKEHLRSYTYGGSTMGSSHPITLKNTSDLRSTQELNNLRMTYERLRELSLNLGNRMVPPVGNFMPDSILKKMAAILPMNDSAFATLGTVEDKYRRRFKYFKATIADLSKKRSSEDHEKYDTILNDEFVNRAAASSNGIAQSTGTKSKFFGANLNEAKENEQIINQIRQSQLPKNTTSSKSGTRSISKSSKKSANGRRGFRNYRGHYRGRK
UniProt P22336: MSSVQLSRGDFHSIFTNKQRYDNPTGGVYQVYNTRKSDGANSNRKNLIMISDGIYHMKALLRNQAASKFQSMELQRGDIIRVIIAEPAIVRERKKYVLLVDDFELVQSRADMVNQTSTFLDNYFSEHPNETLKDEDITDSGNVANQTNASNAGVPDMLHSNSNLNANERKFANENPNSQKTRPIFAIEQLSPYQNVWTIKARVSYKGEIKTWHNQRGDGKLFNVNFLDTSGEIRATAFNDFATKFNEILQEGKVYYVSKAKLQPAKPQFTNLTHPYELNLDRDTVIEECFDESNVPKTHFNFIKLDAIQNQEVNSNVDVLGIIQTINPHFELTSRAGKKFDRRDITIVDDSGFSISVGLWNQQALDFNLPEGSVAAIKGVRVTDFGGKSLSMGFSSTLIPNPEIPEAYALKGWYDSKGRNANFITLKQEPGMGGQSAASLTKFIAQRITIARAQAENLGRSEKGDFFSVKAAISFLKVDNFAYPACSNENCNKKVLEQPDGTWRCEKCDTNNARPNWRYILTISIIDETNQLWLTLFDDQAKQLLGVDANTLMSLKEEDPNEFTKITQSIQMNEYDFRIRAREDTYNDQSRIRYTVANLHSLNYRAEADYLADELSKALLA

Experiments:
[1] = biological target: sgs1-SIM1-2Δ (Sgs1-3HA) (yeast (S. cerevisiae)) (UniProt P35187); experiment: co-IP; Sgs1-3HA precipitated from extracts of cells treated with 0.033% MMS for 2 h; Rpa1 found by Western blot
[2] = biological target: T1, Top3-9myc (yeast (S. cerevisiae)) (UniProt P13099); experiment: co-IP; myc-tagged bait precipitated with anti-Myc 9E10 on protein G Dynabeads, 2 h at 4°C, from yeast extracts in 50 mM HEPES, 150 mM KCl, 1.5 mM MgCl2, 0.5 mM DTT, 0.5% Triton X-100, pH 7.5; HA-tagged prey found by Western blot; cells treated with 0.033% MMS for 2 h; extracts also treated with DNase I (Fig. 3B); STR pairs also tested in mms21ΔC cells (Fig. 3G,H)
T1 sequence: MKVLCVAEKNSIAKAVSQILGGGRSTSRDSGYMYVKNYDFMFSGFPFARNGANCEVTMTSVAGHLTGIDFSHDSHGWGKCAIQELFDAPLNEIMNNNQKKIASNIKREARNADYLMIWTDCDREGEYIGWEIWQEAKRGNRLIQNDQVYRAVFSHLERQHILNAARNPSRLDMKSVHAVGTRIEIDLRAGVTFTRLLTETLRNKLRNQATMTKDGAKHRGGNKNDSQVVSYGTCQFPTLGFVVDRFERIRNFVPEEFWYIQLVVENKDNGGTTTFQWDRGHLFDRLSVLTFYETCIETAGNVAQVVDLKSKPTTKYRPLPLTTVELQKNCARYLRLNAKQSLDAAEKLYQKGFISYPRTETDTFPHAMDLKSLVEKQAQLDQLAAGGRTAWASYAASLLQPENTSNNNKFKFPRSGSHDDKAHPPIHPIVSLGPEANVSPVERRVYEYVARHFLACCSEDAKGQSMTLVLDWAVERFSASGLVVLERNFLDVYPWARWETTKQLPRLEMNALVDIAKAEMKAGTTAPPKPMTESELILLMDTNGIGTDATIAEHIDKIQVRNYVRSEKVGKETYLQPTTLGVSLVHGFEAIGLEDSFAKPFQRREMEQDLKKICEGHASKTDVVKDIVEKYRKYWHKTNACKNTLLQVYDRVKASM

[3] = biological target: T2, Smc5-9myc (yeast (S. cerevisiae)) (UniProt Q08204); experiment: as above
T2 sequence (chain, part of the protein carries SUMO (Smt3) in MMS-treated cells; sites not given): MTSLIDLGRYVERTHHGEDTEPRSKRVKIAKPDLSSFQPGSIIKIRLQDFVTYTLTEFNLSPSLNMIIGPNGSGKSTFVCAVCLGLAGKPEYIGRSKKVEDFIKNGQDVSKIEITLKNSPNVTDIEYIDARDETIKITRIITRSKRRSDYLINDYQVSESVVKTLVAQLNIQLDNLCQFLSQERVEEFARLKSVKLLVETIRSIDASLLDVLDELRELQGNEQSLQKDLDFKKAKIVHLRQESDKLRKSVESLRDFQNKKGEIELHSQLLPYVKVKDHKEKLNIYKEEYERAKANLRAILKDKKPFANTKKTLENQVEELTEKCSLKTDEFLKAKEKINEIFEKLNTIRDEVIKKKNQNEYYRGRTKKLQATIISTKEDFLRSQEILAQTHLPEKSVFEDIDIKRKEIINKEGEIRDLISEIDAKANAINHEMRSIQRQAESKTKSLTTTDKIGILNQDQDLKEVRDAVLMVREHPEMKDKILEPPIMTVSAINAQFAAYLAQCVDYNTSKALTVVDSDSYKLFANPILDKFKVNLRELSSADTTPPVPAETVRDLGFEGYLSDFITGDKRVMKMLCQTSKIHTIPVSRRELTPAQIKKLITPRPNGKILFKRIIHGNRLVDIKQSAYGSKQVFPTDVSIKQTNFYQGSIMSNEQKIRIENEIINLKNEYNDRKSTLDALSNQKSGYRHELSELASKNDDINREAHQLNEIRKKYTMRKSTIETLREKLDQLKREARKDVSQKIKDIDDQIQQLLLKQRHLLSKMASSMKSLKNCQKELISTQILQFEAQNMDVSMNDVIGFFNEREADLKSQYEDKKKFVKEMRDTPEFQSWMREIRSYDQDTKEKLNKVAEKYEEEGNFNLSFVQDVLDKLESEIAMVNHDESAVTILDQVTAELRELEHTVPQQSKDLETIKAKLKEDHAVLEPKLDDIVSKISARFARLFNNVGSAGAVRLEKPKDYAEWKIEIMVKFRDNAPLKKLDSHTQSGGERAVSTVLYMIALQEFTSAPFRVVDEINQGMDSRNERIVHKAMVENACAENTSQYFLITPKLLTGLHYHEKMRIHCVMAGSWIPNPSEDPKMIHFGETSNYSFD

binding [1]	binding [2]	binding [3]	Substance
binds	–	–	Rpa1 (from UniProt P22336 1-621)
–	binds	no binding	sgs1-SIM1-2Δ (Sgs1-3HA) (from UniProt P35187)
–	–	binds	sgs1-SIM1Δ (Sgs1-3HA) (from UniProt P35187)
